In this assay the target is single-stranded DNA binding protein of Bacillus anthracis (SSBBA) (Bacillus anthracis) (UniProt Q81JI3). In words: SEC; both purified.

No constants are given. Whether binding was seen depends on the method and setting.

B1: single-stranded DNA binding protein of Bacillus anthracis (SSBBA) (protein, UniProt Q81JI3 1-172)
chain: MNRVILVGRLTKDPDLRYTPNGVAVATFTLAVNRAFANQQGEREADFINCVIWRKQAENVANYLKKGSLAGVDGRLQTRNYEGQDGKRVYVTEVLAESVQFLEPRNGGGEQRGSFNQQPSGAGFGNQSSNPFGQSSNSGNQGNQGNSGFTKNDDPFSNVGQPIDISDDDLPF
Regarding B1, the binding result is on record as “no binding (tested: 100 μg/ml)”.

Source of the values: PMC3464605, “Thermodynamic analysis of DNA binding by a Bacillus single stranded DNA binding protein”.
